No constants are given. Whether binding was seen depends on the method and setting.
Target: PfCoronin 1-388 (N-terminal beta-propeller domain of Plasmodium falciparum coronin) (Plasmodium falciparum) (UniProt Q8I4S2)
Assay: SEC; Superdex 200 10/300 GL, 30 mM Tris pH 8.0, 300 mM NaCl, 5 mM 2-mercaptoethanol; PfCor-N eluted at ~16 mL; both purified

**Q.** “PfCoronin 1-388 (N-terminal beta-propeller domain of Plasmodium falciparum coronin) (from UniProt Q8I4S2 1-388) (domain or fragment)” was tested. Which binding did it give?
**A.** The binding was “no binding”.

Reference: publication PMC4506582
